# Screening data

Source: PubChem BioAssay AID1347108 (NCATS, 2019).

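Rh41 rhabdomyosarcoma cells exposed to compounds for 48 hours, with viability measured as CellTiter-Glo luminescence from metabolically active cells.
Compounds were run as 8- or 11-point dilution series reaching a top final concentration of 46 µM.
The number is the fitted potency (AC50, nM) for loss of viability, and lower values mean a more potent cytotoxic compound.
Calls come from curve class and activity score: active scores 40-100 for well-fitted killing curves, inconclusive scores 1-39 for weak, partial, poorly fitted or top-dose-only curves.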

Values are in nM.
All entries here are filed as inconclusive.
Only part of the assay is shown, chiefly results filed as inconclusive.
Potencies fitted to partial, single-point or poorly fitting curves are rough.
Some entries filed as inconclusive have a full curve.
Activity scores are not listed here.

structure,Potency (nM),curve
COc1cc(F)c(F)c(Nc2ccc(I)cc2F)c1NS(=O)(=O)C1(C[C@H](O)CO)CC1,5258,"cytotoxic, partial curve"
O=C(Nc1ncc(-c2cc(C(F)F)nn2-c2c(Cl)cccc2Cl)s1)C1CC1,468.6,"cytotoxic, full curve"
CCCC(=O)OC[C@@H](OC(=O)CCC)[C@@H](OC(=O)CCC)[C@H](Cn1c2nc(=O)[nH]c(=O)c-2nc2cc(C)c(C)cc21)OC(=O)CCC,29855,"cytotoxic, partial curve, poor fit"
O=C(Nc1ccc([N+](=O)[O-])cc1Cl)c1cc(Cl)ccc1O,2909,"cytotoxic, partial curve"
Oc1cc(O)cc(C=Cc2ccc(O)c(O)c2)c1,18654,"cytotoxic, partial curve"
CCN(CC)CCOc1ccc(/C(=C(\Cl)c2ccccc2)c2ccccc2)cc1,21136,"cytotoxic, partial curve, poor fit"
Cc1cccc2c1CC[C@H](CN1CCC(c3c(Cl)cccc3Cl)CC1)C[C@@H]2O,16626,"cytotoxic, partial curve"
C[C@@H](NCCCc1cccc(C(F)(F)F)c1)c1cccc2ccccc12,33498,"cytotoxic, single point"
Clc1ccc(C(c2ccccc2Cl)C(Cl)Cl)cc1 (stereo unspecified),29855,"cytotoxic, partial curve, poor fit"
CCn1c(C(=O)N(C2CC2)C2CC2)cc2c3c(ncn3C)c(Nc3cc(C)n(C)n3)nc21,8333,"cytotoxic, partial curve"
CN1CCC(=C2c3ccccc3C=Cc3ccccc32)CC1,18654,"cytotoxic, partial curve"
CCCOc1ccc2nc(NC(=O)OC)[nH]c2c1,37.6,"cytotoxic, full curve"
COC(=O)C1=C(C)NC(C)=C(C(=O)OCC(C)C)C1c1ccccc1[N+](=O)[O-] (stereo unspecified),16788,"cytotoxic, single point"
C=CC(=O)Nc1cccc(Sc2nc(Nc3ccc(N4CCN(C)CC4)cc3)ncc2Cl)c1,29565,"cytotoxic, single point"
COc1cc(Nc2ncc3c(n2)-c2ccc(Cl)cc2C(c2c(F)cccc2OC)=NC3)ccc1C(=O)O,11770,"cytotoxic, partial curve"
C[C@]12CC[C@H](O)CC1=CC[C@H]1[C@H]3CCC(=O)[C@@]3(C)CC[C@@H]12,10490,"cytotoxic, partial curve"
CCCSS/C(CCO)=C(\C)N(C=O)Cc1cnc(C)nc1N,21136,"cytotoxic, single point"
Cc1ccc(C(=O)c2cc(O)c(O)c([N+](=O)[O-])c2)cc1,5258,"cytotoxic, partial curve"
O=c1c(O)c(-c2ccc(O)c(O)c2)oc2cc(O)cc(O)c12,16626,"cytotoxic, partial curve"
CNC(=O)[C@H](Cc1ccccc1)NC(=O)[C@H](CC(C)C)[C@H](CSc1cccs1)C(=O)NO,5899,"cytotoxic, partial curve"
CCCS(=O)c1ccc2nc(NC(=O)OC)[nH]c2c1 (stereo unspecified),18837,"cytotoxic, single point"
CC(C)(C)c1[nH]cnc1C=c1[nH]c(=O)c(=Cc2ccccc2)[nH]c1=O,100,"cytotoxic, full curve"
CN[C@@H](C)C(=O)N[C@H]1CN(C(=O)CC(C)C)CC[C@H]2CC[C@@H](C(=O)NC(c3ccccc3)c3ccccc3)N2C1=O,18654,"cytotoxic, partial curve"
COc1cc(NC(C)CCCN)c2ncccc2c1 (stereo unspecified),16788,"cytotoxic, single point"
CN(C(=O)c1ccc(F)cc1C(F)(F)F)C1CCN(c2nnc(-c3ccnn3C)c3ccccc23)CC1,13206,"cytotoxic, partial curve"
Cc1ccc(/C=N/NC(=O)c2ccccc2Oc2ccccc2)o1,23484,"cytotoxic, single point"
O=C(Nc1cccc(Br)c1)c1cccc(S(=O)(=O)N2CCCCCC2)c1,18654,"cytotoxic, partial curve"
O=C(NOCC1CC1)c1ccc(F)c(F)c1Nc1ccc(I)cc1Cl,26608,"cytotoxic, single point"
CCCCC(CC)COC(=O)C(C#N)=C(c1ccccc1)c1ccccc1 (stereo unspecified),26350,"cytotoxic, single point"
CC=C(C)C(=O)O[C@H]1C(C)=C[C@]23C(=O)[C@@H](C=C(CO)[C@@H](O)[C@]12O)[C@H]1[C@@H](C[C@H]3C)C1(C)C,46.9,"cytotoxic, full curve"
CC[N+](CC)(CC)CCOc1ccc(/C=C/c2ccccc2)cc1,21136,"cytotoxic, single point"
C=CCC1(C(C)CC)C(=O)NC(=O)NC1=O (stereo unspecified),16788,"cytotoxic, partial curve, poor fit"
CC(C)CNc1ccnc(NCc2csc(-c3ccccc3)n2)n1,18654,"cytotoxic, partial curve"
Cc1cc(C2CCCCC2)n(O)c(=O)c1,3317,"cytotoxic, full curve"
CC(=CCCC1=CCC(C2=CC(=O)OC2O)OC1O)CCC1=C(C)CCCC1(C)C (stereo unspecified),10490,"cytotoxic, partial curve"
COc1cc(Nc2nc3ccccc3nc2NS(=O)(=O)c2ccc(NC(=O)c3ccc(C)c(OC)c3)cc2)cc(OC)c1,5258,"cytotoxic, partial curve"
Cc1cccc(C)c1OCC(=O)N[C@@H](Cc1ccccc1)[C@@H](O)C[C@H](Cc1ccccc1)NC(=O)[C@H](C(C)C)N1CCCNC1=O,20930,"cytotoxic, partial curve"
Oc1cccc(-c2c3nc(c(-c4cccc(O)c4)c4ccc([nH]4)c(-c4cccc(O)c4)c4nc(c(-c5cccc(O)c5)c5ccc2[nH]5)CC4)C=C3)c1,16788,"cytotoxic, single point"

For reference, 2 entries once more:

structure	Potency (nM)	curve
CC(C)(C)c1[nH]cnc1C=c1[nH]c(=O)c(=Cc2ccccc2)[nH]c1=O	100	cytotoxic, full curve
COc1cc(Nc2ncc3c(n2)-c2ccc(Cl)cc2C(c2c(F)cccc2OC)=NC3)ccc1C(=O)O	11770	cytotoxic, partial curve